# The list does not hold the whole screen: it is rich in T/C values a quarter to a half above the control, in often repeated tests (any T/C) and in doses without a T/C. Other doses and runs of a compound stand elsewhere. T/C: endpoint of the treated group in % of that of the vehicle group. Some doses have a count of surviving animals in place of a T/C: the source holds a T/C of zero for them, seemingly a mark for toxic or unscored doses. Some doses without a T/C left all or most animals alive at the check, yet need not have been tolerated: the source hardly ever lists a survival T/C far under the control, and the zero likely stands for such cases as well. Survivors were counted at the toxicity check, usually on the fifth day, unless a day is given; later deaths do not show. Schedule codes are those of the source, taken here to give the interval after Q, in days (D) or hours (H), and the number of doses after X. Some doses were run more than once; the results are listed from low to high. For survival time, the PubChem record calls one and a half times the control and up active, and a quarter to a half above the control has no call in these data; cut-offs in other NCI protocols can differ. Counts like (3×) say how often a value occurs here. Some T/C values carry the count of animals alive at the toxicity check (mostly the fifth day); where none is given, no animal had died by that day.
# System: L1210 leukemia ip in BDF1 mice, survival T/C
# Assay: NCI In Vivo Anticancer Drug Screen. Data for tumor model L1210 Leukemia (intraperitoneal) in B6D2F1 (BDF1) mice
# Details: T/C endpoint: mean survival time, higher T/C = longer survival
# [1] = dose: 0.4 mg/kg/injection, schedule: Q01DX009 (ip), vehicle: other
smiles,measurement,setting,value
N=[N+]=CC(=O)CCC(NC(=O)C(CCC(=O)C=[N+]=N)NC(=O)CCC(N)C(=O)O)C(=O)O (centres undefined),T/C,"dose: 0.03 mg/kg/injection, schedule: Q01DX009 (ip), vehicle: water",127 % of control [5 of 6 alive]
same,T/C,"dose: 0.04 mg/kg/injection, schedule: Q01DX009 (ip), vehicle: water",131 % of control
same,T/C,"dose: 0.05 mg/kg/injection, schedule: Q01DX009 (sc), vehicle: water",131 % of control
same,T/C,"dose: 0.06 mg/kg/injection, schedule: Q01DX009 (ip), vehicle: water",140 % of control
same,T/C,"dose: 0.07 mg/kg/injection, schedule: Q01DX009 (ip), vehicle: other",126 % of control
same,T/C,"dose: 0.08 mg/kg/injection, schedule: Q01DX009 (ip), vehicle: water",129 and 146 % of control
same,T/C,"dose: 0.09 mg/kg/injection, schedule: Q01DX009 (ip), vehicle: water",125 % of control
same,T/C,"dose: 0.1 mg/kg/injection, schedule: Q01DX009 (ip), vehicle: other, evaluated on day 35",138 % of control
same,T/C,"dose: 0.1 mg/kg/injection, schedule: Q01DX009 (ip), vehicle: other, run until all animals had died",126 % of control [5 of 6 alive]
same,T/C,"dose: 0.1 mg/kg/injection, schedule: Q01DX009 (ip), vehicle: water",137 % of control
same,T/C,"dose: 0.1 mg/kg/injection, schedule: Q01DX009 (sc), vehicle: water",149 % of control
same,T/C,"dose: 0.1 mg/kg/injection, schedule: Q01DX017 (ip), vehicle: saline",130 % of control
same,T/C,"dose: 0.15 mg/kg/injection, schedule: Q01DX009 (sc), vehicle: water",132 % of control
same,T/C,"dose: 0.16 mg/kg/injection, schedule: Q02DX008 (ip), vehicle: water",125 % of control
same,survivor count,"dose: 0.2 mg/kg/injection, schedule: Q01DX009 (ip), vehicle: other",3 of 6
same,T/C,"dose: 0.2 mg/kg/injection, schedule: Q01DX015 (ip), vehicle: other",135 % of control
same,T/C,"dose: 0.2 mg/kg/injection, schedule: Q01DX015 (ip), vehicle: water",125 and 127 % of control
same,T/C,"dose: 0.2 mg/kg/injection, schedule: Q01DX017 (ip), vehicle: saline",134 % of control
same,T/C,"dose: 0.3 mg/kg/injection, schedule: Q01DX005 (iv), vehicle: other",144 % of control
same,T/C,"dose: 0.31 mg/kg/injection, schedule: Q02DX008 (ip), vehicle: water",130 % of control
same,T/C,"dose: 0.31 mg/kg/injection, schedule: Q02DX008 (oral), vehicle: water",127 % of control
same,T/C,[1],134 % of control
same,survivor count,[1],5 of 6
same,T/C,"dose: 0.4 mg/kg/injection, schedule: Q02DX009 (ip), vehicle: saline",134 % of control
same,T/C,"dose: 0.6 mg/kg/injection, schedule: Q01DX005 (iv), vehicle: other",144 % of control
same,T/C,"dose: 0.6 mg/kg/injection, schedule: Q01DX015 (ip), vehicle: other",137 % of control
same,T/C,"dose: 0.62 mg/kg/injection, schedule: Q02DX008 (ip), vehicle: other",145 % of control
same,T/C,"dose: 0.62 mg/kg/injection, schedule: Q02DX008 (ip), vehicle: water",148 % of control
same,T/C,"dose: 0.62 mg/kg/injection, schedule: Q02DX008 (oral), vehicle: water",127 % of control
same,T/C,"dose: 0.78 mg/kg/injection, schedule: Q03HX008 (ip), vehicle: water",129 % of control
same,survivor count,"dose: 0.8 mg/kg/injection, schedule: Q01DX009 (ip), vehicle: other",5 of 6
same,survivor count,"dose: 0.8 mg/kg/injection, schedule: Q01DX015 (ip), vehicle: other",6 of 6
same,survivor count,"dose: 1.0 mg/kg/injection, schedule: Q01DX009 (ip), vehicle: other",6 of 6
same,T/C,"dose: 1.2 mg/kg/injection, schedule: Q01DX005 (iv), vehicle: other",128 % of control
same,T/C,"dose: 1.25 mg/kg/injection, schedule: Q04DX003 (ip), vehicle: water",125 % of control
same,T/C,"dose: 1.56 mg/kg/injection, schedule: Q03HX008 (ip), vehicle: water",129 % of control
same,survivor count,"dose: 1.6 mg/kg/injection, schedule: Q01DX009 (ip), vehicle: other",6 of 6
same,survivor count,"dose: 1.8 mg/kg/injection, schedule: Q01DX009 (ip), vehicle: water",5 of 6
same,survivor count,"dose: 2.0 mg/kg/injection, schedule: Q01DX009 (ip), vehicle: water",6 of 6
same,T/C,"dose: 2.0 mg/kg/injection, schedule: Q02DX005 (ip), vehicle: other",147 % of control [4 of 6 alive]
same,T/C,"dose: 2.5 mg/kg/injection, schedule: Q01DX005 (iv), vehicle: other",140 % of control
same,T/C,"dose: 2.5 mg/kg/injection, schedule: Q02DX008 (ip), vehicle: other",145 % of control
same,T/C,"dose: 2.5 mg/kg/injection, schedule: Q04DX003 (ip), vehicle: other",130 % of control
same,T/C,"dose: 2.5 mg/kg/injection, schedule: Q04DX003 (ip), vehicle: water",136 % of control
same,T/C,"dose: 3.13 mg/kg/injection, schedule: Q03HX008 (ip), vehicle: water",141 % of control
same,survivor count,"dose: 5.0 mg/kg/injection, schedule: Q01DX005 (iv), vehicle: other",5 of 6
same,survivor count,"dose: 5.0 mg/kg/injection, schedule: Q01DX009 (oral), vehicle: water",5 of 6
same,T/C,"dose: 5.0 mg/kg/injection, schedule: Q04DX003 (ip), vehicle: other",146 % of control
same,T/C,"dose: 5.0 mg/kg/injection, schedule: Q04DX003 (ip), vehicle: water",142 % of control
same,T/C,"dose: 6.25 mg/kg/injection, schedule: Q03HX008 (ip), vehicle: water",125 % of control
same,survivor count,"dose: 10.0 mg/kg/injection, schedule: Q01DX009 (oral), vehicle: water",1 of 6
same,T/C,"dose: 10.0 mg/kg/injection, schedule: Q07DX002 (ip), vehicle: water",148 % of control [5 of 6 alive]
same,T/C,"dose: 12.5 mg/kg/injection, schedule: Q01DX001 (ip), vehicle: saline",129 % of control
same,T/C,"dose: 15.0 mg/kg/injection, schedule: Q02DX008 (ip), vehicle: other",137 % of control
same,survivor count,"dose: 20.0 mg/kg/injection, schedule: Q02DX004 (ip), vehicle: water",6 of 6
same,T/C,"dose: 25.0 mg/kg/injection, schedule: Q01DX001 (ip), vehicle: other",126 % of control [5 of 6 alive]
same,T/C,"dose: 25.0 mg/kg/injection, schedule: Q01DX001 (ip), vehicle: saline, evaluated on day 30",132 % of control
same,T/C,"dose: 25.0 mg/kg/injection, schedule: Q01DX001 (ip), vehicle: saline, run until all animals had died",133 and 140 % of control
same,T/C,"dose: 25.0 mg/kg/injection, schedule: Q01DX001 (ip), vehicle: water",126 % of control (2×)
same,survivor count,"dose: 25.0 mg/kg/injection, schedule: Q03HX024 (ip), vehicle: water",5 of 10
same,survivor count,"dose: 40.0 mg/kg/injection, schedule: Q02DX004 (ip), vehicle: water",5 of 6
same,T/C,"dose: 40.0 mg/kg/injection, schedule: Q04DX003 (ip), vehicle: other",130 % of control
same,T/C,"dose: 50.0 mg/kg/injection, schedule: Q01DX001 (ip), vehicle: clinical formulation",137 % of control
same,T/C,"dose: 50.0 mg/kg/injection, schedule: Q01DX001 (ip), vehicle: other, evaluated on day 35",138 % of control
same,T/C,"dose: 50.0 mg/kg/injection, schedule: Q01DX001 (ip), vehicle: other, run until all animals had died",133 and 147 % of control
same,T/C,"dose: 50.0 mg/kg/injection, schedule: Q01DX001 (ip), vehicle: saline",137 and 138 % of control
same,T/C,"dose: 50.0 mg/kg/injection, schedule: Q01DX001 (oral), vehicle: other",134 % of control
same,T/C,"dose: 50.0 mg/kg/injection, schedule: Q01DX001 (sc), vehicle: other",134 % of control
same,survivor count,"dose: 50.0 mg/kg/injection, schedule: Q01DX009 (oral), vehicle: water",0 of 6
same,survivor count,"dose: 50.0 mg/kg/injection, schedule: Q03HX024 (ip), vehicle: water",6 of 10
same,survivor count,"dose: 60.0 mg/kg/injection, schedule: Q02DX004 (ip), vehicle: water",5 of 6
same,survivor count,"dose: 60.0 mg/kg/injection, schedule: Q04DX003 (ip), vehicle: other",3 of 6
same,survivor count,"dose: 80.0 mg/kg/injection, schedule: Q02DX004 (ip), vehicle: water",5 of 6
same,T/C,"dose: 100.0 mg/kg/injection, schedule: Q01DX001 (ip), vehicle: other, evaluated on day 35",136 % of control
same,T/C,"dose: 100.0 mg/kg/injection, schedule: Q01DX001 (ip), vehicle: other, run until all animals had died",128 and 136 % of control
same,T/C,"dose: 100.0 mg/kg/injection, schedule: Q01DX001 (ip), vehicle: saline, evaluated on day 30",148 % of control
same,T/C,"dose: 100.0 mg/kg/injection, schedule: Q01DX001 (ip), vehicle: saline, run until all animals had died",147 % of control (2×)
same,T/C,"dose: 100.0 mg/kg/injection, schedule: Q01DX001 (ip), vehicle: water",134 and 140 % of control
same,T/C,"dose: 100.0 mg/kg/injection, schedule: Q01DX001 (oral), vehicle: other",142 % of control
same,T/C,"dose: 100.0 mg/kg/injection, schedule: Q01DX001 (sc), vehicle: other",142 % of control
same,survivor count,"dose: 100.0 mg/kg/injection, schedule: Q01DX009 (oral), vehicle: water",0 of 6
same,T/C,"dose: 150.0 mg/kg/injection, schedule: Q01DX001 (ip), vehicle: water",134 and 148 % of control
same,survivor count,"dose: 200.0 mg/kg/injection, schedule: Q01DX001 (ip), vehicle: clinical formulation",3 of 4
same,T/C,"dose: 200.0 mg/kg/injection, schedule: Q01DX001 (ip), vehicle: other, evaluated on day 35",140 % of control
same,T/C,"dose: 200.0 mg/kg/injection, schedule: Q01DX001 (ip), vehicle: other, run until all animals had died",149 % of control [3 of 4 alive]
same,T/C,"dose: 200.0 mg/kg/injection, schedule: Q01DX001 (ip), vehicle: saline",128 % of control
same,T/C,"dose: 200.0 mg/kg/injection, schedule: Q01DX001 (sc), vehicle: other",130 % of control
same,T/C,"dose: 200.0 mg/kg/injection, schedule: Q07DX002 (ip), vehicle: other",146 % of control
same,survivor count,"dose: 400.0 mg/kg/injection, schedule: Q01DX001 (ip), vehicle: other",3 of 4 and 6 of 6
same,T/C,"dose: 400.0 mg/kg/injection, schedule: Q01DX001 (oral), vehicle: other",132 % of control
same,survivor count,"dose: 400.0 mg/kg/injection, schedule: Q01DX001 (sc), vehicle: other",6 of 6
same,survivor count,"dose: 400.0 mg/kg/injection, schedule: Q07DX002 (ip), vehicle: other",6 of 6
same,survivor count,"dose: 500.0 mg/kg/injection, schedule: Q01DX001 (ip), vehicle: water",4 of 6
same,survivor count,"dose: 500.0 mg/kg/injection, schedule: Q07DX002 (ip), vehicle: water",4 of 6
